For 36 targets, log2 fold change results are on record in the supplement of paper PMC10849652.

Protein sequences, listed by entry. Tags and fused reporters are not part of them. Lines headed by an entry give the natural chain unless they say otherwise; changes in a name come on top.
UniProt Q9NRP7: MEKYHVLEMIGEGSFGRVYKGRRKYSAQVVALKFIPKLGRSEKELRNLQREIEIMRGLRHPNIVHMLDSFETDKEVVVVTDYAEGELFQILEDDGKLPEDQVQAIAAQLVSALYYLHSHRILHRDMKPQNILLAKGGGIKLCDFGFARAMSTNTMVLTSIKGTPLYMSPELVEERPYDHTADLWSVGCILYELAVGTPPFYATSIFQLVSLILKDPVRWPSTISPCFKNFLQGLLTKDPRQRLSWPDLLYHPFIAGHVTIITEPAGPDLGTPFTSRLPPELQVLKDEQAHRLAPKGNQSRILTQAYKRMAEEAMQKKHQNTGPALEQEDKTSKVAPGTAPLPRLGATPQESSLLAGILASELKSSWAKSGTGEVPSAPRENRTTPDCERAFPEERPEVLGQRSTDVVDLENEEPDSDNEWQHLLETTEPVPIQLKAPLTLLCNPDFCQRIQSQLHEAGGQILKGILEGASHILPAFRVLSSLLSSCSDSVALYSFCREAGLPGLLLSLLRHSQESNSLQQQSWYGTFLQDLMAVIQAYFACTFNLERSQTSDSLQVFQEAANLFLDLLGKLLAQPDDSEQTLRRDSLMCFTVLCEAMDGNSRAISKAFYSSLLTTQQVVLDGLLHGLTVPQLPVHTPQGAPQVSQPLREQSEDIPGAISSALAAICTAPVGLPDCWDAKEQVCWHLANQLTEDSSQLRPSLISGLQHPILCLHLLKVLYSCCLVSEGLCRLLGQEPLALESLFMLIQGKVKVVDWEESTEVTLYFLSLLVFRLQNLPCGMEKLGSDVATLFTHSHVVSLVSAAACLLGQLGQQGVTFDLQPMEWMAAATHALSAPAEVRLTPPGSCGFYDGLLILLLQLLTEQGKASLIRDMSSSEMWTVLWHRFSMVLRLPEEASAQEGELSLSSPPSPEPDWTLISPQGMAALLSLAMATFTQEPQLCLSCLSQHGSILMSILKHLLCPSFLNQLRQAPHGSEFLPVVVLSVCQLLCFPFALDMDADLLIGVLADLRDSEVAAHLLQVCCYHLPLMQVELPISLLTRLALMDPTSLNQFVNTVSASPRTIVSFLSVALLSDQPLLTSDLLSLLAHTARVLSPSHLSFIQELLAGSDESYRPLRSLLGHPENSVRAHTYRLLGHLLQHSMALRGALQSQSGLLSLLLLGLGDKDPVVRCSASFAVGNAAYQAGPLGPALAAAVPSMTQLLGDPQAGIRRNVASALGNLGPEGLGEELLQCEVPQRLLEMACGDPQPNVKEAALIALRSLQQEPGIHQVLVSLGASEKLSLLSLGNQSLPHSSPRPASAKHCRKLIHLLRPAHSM
UniProt Q8TDR2: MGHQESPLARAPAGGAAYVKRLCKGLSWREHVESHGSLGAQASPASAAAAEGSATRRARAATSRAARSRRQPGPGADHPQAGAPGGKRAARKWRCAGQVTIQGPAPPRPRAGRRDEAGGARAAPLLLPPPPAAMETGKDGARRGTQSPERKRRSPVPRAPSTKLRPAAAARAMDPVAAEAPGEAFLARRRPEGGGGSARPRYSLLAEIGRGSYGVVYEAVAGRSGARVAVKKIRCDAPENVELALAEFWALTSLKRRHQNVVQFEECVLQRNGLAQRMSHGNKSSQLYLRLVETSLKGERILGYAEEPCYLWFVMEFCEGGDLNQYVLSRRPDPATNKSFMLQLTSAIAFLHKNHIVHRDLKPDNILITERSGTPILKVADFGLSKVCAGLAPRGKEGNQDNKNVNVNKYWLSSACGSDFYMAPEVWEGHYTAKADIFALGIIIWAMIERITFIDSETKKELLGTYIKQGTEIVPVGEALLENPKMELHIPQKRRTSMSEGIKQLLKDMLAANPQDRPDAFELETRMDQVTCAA
UniProt Q9Y6J9: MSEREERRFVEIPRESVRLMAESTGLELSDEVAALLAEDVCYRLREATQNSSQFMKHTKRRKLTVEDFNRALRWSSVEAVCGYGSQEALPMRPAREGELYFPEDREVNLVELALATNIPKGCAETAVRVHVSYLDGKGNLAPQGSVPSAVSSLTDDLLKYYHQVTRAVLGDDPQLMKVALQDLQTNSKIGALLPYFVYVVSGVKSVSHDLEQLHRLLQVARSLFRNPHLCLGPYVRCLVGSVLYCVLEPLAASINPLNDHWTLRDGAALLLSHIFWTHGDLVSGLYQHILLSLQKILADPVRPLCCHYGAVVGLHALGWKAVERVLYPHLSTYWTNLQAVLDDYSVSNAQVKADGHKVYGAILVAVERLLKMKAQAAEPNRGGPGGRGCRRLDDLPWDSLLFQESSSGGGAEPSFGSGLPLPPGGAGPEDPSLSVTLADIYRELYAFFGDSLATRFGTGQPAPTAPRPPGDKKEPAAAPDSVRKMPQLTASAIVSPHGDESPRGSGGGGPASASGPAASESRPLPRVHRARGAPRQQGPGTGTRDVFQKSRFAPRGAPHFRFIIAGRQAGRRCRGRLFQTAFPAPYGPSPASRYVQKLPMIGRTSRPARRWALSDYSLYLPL
UniProt Q96C24: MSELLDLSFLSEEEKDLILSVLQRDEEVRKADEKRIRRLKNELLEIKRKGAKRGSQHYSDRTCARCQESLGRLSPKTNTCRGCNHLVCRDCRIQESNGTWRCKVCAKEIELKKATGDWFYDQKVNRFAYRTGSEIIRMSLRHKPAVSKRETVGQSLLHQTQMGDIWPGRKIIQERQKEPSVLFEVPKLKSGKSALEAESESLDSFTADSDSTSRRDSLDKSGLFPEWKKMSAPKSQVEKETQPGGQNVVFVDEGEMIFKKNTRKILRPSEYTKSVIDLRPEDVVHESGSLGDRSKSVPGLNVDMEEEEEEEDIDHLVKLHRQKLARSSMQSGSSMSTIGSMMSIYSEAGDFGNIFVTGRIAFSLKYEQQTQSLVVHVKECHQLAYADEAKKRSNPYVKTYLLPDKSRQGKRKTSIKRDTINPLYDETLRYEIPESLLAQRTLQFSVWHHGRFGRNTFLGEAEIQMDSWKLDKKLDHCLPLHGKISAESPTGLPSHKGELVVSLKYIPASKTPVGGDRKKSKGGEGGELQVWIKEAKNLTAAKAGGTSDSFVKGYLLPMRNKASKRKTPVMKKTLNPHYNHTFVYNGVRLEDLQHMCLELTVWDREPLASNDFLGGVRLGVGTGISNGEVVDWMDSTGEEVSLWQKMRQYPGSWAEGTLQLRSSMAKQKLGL
UniProt Q9UL54: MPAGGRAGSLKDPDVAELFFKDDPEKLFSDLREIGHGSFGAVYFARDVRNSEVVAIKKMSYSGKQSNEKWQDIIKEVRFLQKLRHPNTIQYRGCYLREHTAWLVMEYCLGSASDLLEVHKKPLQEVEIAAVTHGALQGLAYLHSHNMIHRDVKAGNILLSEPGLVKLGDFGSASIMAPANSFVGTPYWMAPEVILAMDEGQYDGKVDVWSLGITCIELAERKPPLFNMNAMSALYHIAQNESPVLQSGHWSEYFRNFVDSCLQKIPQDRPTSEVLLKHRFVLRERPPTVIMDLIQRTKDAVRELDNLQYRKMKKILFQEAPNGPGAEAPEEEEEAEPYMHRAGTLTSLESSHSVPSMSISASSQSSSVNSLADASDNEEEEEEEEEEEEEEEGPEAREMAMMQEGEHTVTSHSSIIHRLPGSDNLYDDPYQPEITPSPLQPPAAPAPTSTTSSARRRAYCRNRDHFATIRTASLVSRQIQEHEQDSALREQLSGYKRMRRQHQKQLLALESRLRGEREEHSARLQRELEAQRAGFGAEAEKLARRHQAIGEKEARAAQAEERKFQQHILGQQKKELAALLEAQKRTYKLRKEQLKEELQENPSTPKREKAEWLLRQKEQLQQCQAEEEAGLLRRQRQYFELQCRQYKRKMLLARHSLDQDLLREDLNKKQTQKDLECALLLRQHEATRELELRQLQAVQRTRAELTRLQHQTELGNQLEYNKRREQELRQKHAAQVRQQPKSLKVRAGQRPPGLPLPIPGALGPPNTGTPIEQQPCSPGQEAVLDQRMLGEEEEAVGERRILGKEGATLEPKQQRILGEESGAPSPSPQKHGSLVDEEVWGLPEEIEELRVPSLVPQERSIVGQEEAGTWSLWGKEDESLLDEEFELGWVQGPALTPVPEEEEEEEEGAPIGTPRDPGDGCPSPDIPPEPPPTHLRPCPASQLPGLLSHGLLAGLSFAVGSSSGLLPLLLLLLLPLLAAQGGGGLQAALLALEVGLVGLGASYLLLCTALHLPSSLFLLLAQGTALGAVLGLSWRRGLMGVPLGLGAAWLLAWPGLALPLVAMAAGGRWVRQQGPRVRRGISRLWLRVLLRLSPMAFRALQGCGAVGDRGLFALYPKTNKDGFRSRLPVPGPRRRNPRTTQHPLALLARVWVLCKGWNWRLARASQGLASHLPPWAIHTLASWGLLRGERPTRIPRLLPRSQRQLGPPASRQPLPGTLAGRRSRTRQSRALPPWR
UniProt P08247, whole entry, looked up: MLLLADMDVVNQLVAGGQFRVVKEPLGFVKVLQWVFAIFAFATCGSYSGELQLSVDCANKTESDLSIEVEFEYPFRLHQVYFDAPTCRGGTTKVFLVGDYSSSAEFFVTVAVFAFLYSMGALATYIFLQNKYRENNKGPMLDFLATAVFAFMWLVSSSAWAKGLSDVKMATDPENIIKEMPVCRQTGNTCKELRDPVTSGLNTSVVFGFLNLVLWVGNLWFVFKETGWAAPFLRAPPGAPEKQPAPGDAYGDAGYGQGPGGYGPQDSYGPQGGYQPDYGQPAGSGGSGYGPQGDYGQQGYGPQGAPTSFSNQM
UniProt Q13033: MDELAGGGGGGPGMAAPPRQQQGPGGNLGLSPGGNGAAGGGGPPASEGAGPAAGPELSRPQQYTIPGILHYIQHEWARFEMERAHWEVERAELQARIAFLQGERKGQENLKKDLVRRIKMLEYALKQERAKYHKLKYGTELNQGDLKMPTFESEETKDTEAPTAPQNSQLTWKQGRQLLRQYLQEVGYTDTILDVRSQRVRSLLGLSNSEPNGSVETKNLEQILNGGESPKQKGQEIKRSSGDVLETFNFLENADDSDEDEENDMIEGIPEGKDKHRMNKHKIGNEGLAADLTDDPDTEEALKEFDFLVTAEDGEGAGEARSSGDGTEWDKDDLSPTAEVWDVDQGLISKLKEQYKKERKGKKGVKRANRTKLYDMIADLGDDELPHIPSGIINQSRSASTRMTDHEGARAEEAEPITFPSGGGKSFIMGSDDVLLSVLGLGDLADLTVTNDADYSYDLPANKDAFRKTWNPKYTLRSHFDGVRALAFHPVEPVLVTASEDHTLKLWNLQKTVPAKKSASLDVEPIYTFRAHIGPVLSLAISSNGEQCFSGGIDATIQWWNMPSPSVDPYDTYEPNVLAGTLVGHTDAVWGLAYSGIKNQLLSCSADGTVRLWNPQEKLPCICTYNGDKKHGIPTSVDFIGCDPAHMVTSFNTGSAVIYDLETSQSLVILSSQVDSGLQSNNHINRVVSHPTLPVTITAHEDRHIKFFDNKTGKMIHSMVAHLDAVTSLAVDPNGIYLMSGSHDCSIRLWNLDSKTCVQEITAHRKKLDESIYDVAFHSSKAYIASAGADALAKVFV
UniProt Q15022: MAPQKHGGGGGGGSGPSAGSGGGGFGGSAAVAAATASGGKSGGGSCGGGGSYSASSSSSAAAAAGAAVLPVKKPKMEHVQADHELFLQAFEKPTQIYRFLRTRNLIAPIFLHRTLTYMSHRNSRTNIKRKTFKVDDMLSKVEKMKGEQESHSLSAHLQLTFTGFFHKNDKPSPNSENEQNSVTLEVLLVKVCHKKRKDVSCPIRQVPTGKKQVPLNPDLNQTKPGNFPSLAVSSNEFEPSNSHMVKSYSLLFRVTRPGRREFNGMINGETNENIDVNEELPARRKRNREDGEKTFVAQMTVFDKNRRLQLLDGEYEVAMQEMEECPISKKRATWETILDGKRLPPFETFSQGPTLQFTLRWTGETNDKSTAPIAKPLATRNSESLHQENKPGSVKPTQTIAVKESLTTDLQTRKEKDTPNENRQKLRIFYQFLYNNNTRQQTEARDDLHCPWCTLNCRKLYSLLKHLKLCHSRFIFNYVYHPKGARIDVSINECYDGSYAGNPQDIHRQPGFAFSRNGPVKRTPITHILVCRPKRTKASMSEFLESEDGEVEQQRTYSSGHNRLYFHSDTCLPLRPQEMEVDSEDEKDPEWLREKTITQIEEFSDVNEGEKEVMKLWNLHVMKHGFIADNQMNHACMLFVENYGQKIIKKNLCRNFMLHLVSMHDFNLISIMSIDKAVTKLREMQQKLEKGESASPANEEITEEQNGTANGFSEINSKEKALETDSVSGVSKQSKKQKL
UniProt Q15544, whole entry, looked up: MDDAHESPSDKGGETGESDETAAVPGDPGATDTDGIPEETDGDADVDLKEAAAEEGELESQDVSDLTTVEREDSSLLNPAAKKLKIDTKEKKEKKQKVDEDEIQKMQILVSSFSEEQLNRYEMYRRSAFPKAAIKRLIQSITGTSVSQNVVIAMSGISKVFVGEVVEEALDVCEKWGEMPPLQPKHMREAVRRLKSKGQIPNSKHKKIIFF
UniProt Q8N300: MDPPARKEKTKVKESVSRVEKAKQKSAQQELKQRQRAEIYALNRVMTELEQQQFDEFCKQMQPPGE

Some of the results follow.

Compound in the first experiment: Cc1ncc(-c2ccnc(Nc3ccc(S(C)(=O)=O)cc3)n2)n1C(C)C
The experiment can be described thus: log2 fold change, soluble protein after heating vs DMSO (PISA); higher = thermal stabilisation; K562 cells, 10 uM, 30 min; active = over 0.2 and 3.5 SD of the protein, either way, in both replicates (recomputed). The method, boiled down: (§1)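 Aliquots of K562 cells (2×10^6 cells/mL) treated with 10 μM compound for 30 min were heated for 3 min over 48°C-58°C. After pooling and extraction in PBS with 0.5% NP-40 at 4°C, soluble protein from a 21,000xg, 90 min spin was quantified by TMTpro 16plex LC-MS/MS with channel sums equalised. Thermal stability is expressed against control samples, from duplicates, as a log2 fold change.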
As for STK36 (UniProt Q9NRP7), the log2 fold change was inactive: 0.042.

Consider SUPT7L (UniProt O94864), for which the log2 fold change is inactive: 0.253.

Regarding STON2 isoform 3 (UniProt Q8WXE9), the log2 fold change was inactive: 0.015.

Consider SUSD1 isoform 2 (UniProt Q6UWL2), for which the log2 fold change was inactive: -0.075.

Consider TASP1 (UniProt Q9H6P5), for which the log2 fold change is inactive: -0.116.

For the target TACC2 (UniProt O95359), the log2 fold change is inactive: 0.008.

On to STK35 (UniProt Q8TDR2), for which the log2 fold change is inactive: -0.021.

Regarding TAF6L (UniProt Q9Y6J9), the log2 fold change was inactive: 0.046.

As for SUGP2 (UniProt Q8IX01), the log2 fold change is inactive: -0.291.

Consider SYTL4 (UniProt Q96C24), for which the log2 fold change was inactive: -0.169.

On to TAOK2 (UniProt Q9UL54), for which the log2 fold change is inactive: -0.028.

SYP (UniProt P08247): the log2 fold change was inactive: 0.027.

STRN3 isoform 2 (UniProt Q13033): the log2 fold change is inactive: 0.02.

Regarding SUZ12 (UniProt Q15022), the log2 fold change is inactive: 0.031.

SULT1E1 (UniProt P49888): the log2 fold change was inactive: 0.063.

For STRIP2 (UniProt Q9ULQ0), the log2 fold change was inactive: 0.035.

Compound in another experiment: Cn1cc(-c2ccc3c(c2)CCN3C(=O)Cc2cccc(C(F)(F)F)c2)c2c(N)ncnc21
Described as above. In outline: as §1
Consider TBC1D12 (UniProt O60347), for which the log2 fold change was inactive: -0.148.

Consider SYK (UniProt P43405), for which the log2 fold change was inactive: 0.141.

Turning to SUSD1 isoform 2 (UniProt Q6UWL2), the log2 fold change was inactive: -0.209.

On to TACC2 (UniProt O95359), for which the log2 fold change is inactive: -0.001.

For STK35 (UniProt Q8TDR2), the log2 fold change is inactive: -0.201.

For the target TAF6L (UniProt Q9Y6J9), the log2 fold change was inactive: -0.106.

For SYTL4 (UniProt Q96C24), the log2 fold change was inactive: -0.006.

On to TAF11 (UniProt Q15544), for which the log2 fold change was inactive: -0.051.

In the case of SYP (UniProt P08247), the log2 fold change was inactive: 0.05.

Turning to STRN3 isoform 2 (UniProt Q13033), the log2 fold change was inactive: -0.062.

For SVBP (UniProt Q8N300), the log2 fold change is inactive: 0.093.

With STRIP2 (UniProt Q9ULQ0), the log2 fold change was inactive: 0.028.

Compound in the next experiment: Cn1cc(-c2ccc3nnc(C(F)(F)c4ccc5ncccc5c4)n3n2)cn1
The experiment is described as above. In outline:
as §1
Consider STK36 (UniProt Q9NRP7), for which the log2 fold change is inactive: -0.02.

For SUPT7L (UniProt O94864), the log2 fold change was inactive: 0.007.

Turning to STON2 isoform 3 (UniProt Q8WXE9), the log2 fold change was inactive: -0.033.

As to TATDN1 isoform 2 (UniProt Q6P1N9), the log2 fold change is inactive: 0.033.

On to SYK (UniProt P43405), for which the log2 fold change was inactive: -0.041.

As to TACC3 (UniProt C9JWI7), the log2 fold change was inactive: 0.077.

As for SYS1 (UniProt Q8N2H4), the log2 fold change is inactive: 0.082.

For the target SUPT3H isoform 4 (UniProt O75486), the log2 fold change was inactive: -0.01.

Consider STOML1 (UniProt Q9UBI4), for which the log2 fold change was inactive: 0.127.

Regarding TACC2 (UniProt O95359), the log2 fold change is inactive: -0.003.

STK35 (UniProt Q8TDR2): the log2 fold change is inactive: -0.076.

As for TAF6L (UniProt Q9Y6J9), the log2 fold change is inactive: -0.018.

As to TAOK2 (UniProt Q9UL54), the log2 fold change is inactive: -0.093.

On to TASOR (UniProt Q9UK61), for which the log2 fold change is inactive: -0.007.

Regarding TAF13 (UniProt Q15543), the log2 fold change was inactive: 0.074.

For the target TAF11 (UniProt Q15544), the log2 fold change was inactive: -0.038.

For the target SYP (UniProt P08247), the log2 fold change was inactive: 0.023.

For SUGT1 isoform 2 (UniProt Q9Y2Z0), the log2 fold change is inactive: 0.112.

As to TAF5 (UniProt Q15542), the log2 fold change is inactive: -0.242.

Regarding SUZ12 (UniProt Q15022), the log2 fold change is inactive: 0.026.

For the target TAZ (UniProt Q16635), the log2 fold change was inactive: 0.058.

As to STYX (UniProt Q8WUJ0), the log2 fold change was inactive: 0.042.

On to TAB2 (UniProt Q9NYJ8), for which the log2 fold change was inactive: 0.064.

As for SVBP (UniProt Q8N300), the log2 fold change was inactive: -0.048.

For the target STRIP2 (UniProt Q9ULQ0), the log2 fold change was inactive: -0.03.

As for TBC1D10A (UniProt Q9BXI6), the log2 fold change is inactive: -0.044.

Compound in a further experiment: Cn1cncc1[C@@](N)(c1ccc(Cl)cc1)c1ccc2c(c1)c(-c1cccc(Cl)c1)cc(=O)n2C [tipifarnib]
The experiment is described as above. The method, boiled down: as §1
For the target STK36 (UniProt Q9NRP7), the log2 fold change is inactive: -0.12.

In the case of STK40 isoform 4 (UniProt Q8N2I9), the log2 fold change was inactive: -0.033.

TBC1D12 (UniProt O60347): the log2 fold change was inactive: -0.071.

For TATDN1 isoform 2 (UniProt Q6P1N9), the log2 fold change was inactive: -0.201.

Turning to SYK (UniProt P43405), the log2 fold change is inactive: 0.075.

In the case of STS (UniProt P08842), the log2 fold change is inactive: 0.039.

For the target TADA1 (UniProt Q96BN2), the log2 fold change was inactive: 0.022.

As to SYS1 (UniProt Q8N2H4), the log2 fold change is inactive: 0.202.

In the case of SUSD1 isoform 2 (UniProt Q6UWL2), the log2 fold change is inactive: 0.008.

On to TACC2 (UniProt O95359), for which the log2 fold change was inactive: 0.029.

STK35 (UniProt Q8TDR2): the log2 fold change is inactive: 0.139.

As to TAF6L (UniProt Q9Y6J9), the log2 fold change was inactive: 0.055.

With SYTL4 (UniProt Q96C24), the log2 fold change was inactive: 0.074.

On to TAOK2 (UniProt Q9UL54), for which the log2 fold change was inactive: 0.014.

Turning to TAF11 (UniProt Q15544), the log2 fold change was inactive: 0.086.

SYP (UniProt P08247): the log2 fold change is inactive: 0.048.

As to STRN3 isoform 2 (UniProt Q13033), the log2 fold change is inactive: 0.021.

Turning to SUGT1 isoform 2 (UniProt Q9Y2Z0), the log2 fold change was inactive: -0.036.

Regarding SUZ12 (UniProt Q15022), the log2 fold change is inactive: 0.027.

On to TAZ (UniProt Q16635), for which the log2 fold change is inactive: -0.066.

As to SVBP (UniProt Q8N300), the log2 fold change was inactive: 0.029.

For STRIP2 (UniProt Q9ULQ0), the log2 fold change is inactive: -0.031.

Turning to TBC1D10A (UniProt Q9BXI6), the log2 fold change is inactive: 0.096.
